# Measured values as given in patent publication EP4763862A1.
# These are yes or no findings as the source states them, for the method shown. Some binding calls cover weakened binding; strength is not graded here.
# T1: human B7-H3 on CHO-S-human B7-H3 cells (human) (UniProt Q5ZPR3)
# T1 sequence (looked up): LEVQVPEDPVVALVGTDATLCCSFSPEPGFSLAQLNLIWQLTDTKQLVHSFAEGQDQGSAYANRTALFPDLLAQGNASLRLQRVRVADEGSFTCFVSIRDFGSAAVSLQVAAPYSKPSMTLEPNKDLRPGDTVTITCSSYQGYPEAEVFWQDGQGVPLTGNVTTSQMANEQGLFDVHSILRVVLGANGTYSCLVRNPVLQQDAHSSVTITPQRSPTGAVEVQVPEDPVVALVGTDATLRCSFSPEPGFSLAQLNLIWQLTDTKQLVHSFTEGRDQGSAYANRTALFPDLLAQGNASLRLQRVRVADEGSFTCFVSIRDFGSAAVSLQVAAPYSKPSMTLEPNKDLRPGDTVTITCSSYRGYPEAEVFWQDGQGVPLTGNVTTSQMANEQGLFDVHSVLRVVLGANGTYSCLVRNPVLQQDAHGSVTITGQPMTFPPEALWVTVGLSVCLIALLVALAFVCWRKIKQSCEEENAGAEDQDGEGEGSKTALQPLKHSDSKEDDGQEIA
# Target: T1, human B7-H3 on CHO-S-human B7-H3 cells (human)
# Assay: flow cytometry on CHO-S-human B7-H3 cells, antibody 1 µg/ml
row,Binder,binding
1,"9-A2-G3-H11 (antibody, human IgG1, kappa, V domains shown) VH: EVQLQQSGPELVRPGESVKISCKGSGYTFTDYAIHWVKQSHAKSLEWIGVISTYYDNTYYNQKFKGRATMTVDKSSSTAYMELARLTSEDSAIYYCARGYGSSFNWYFDVWGAGTTVTVSS VL: DIVMTQSPSSLAVSAGEKVTMSCKSSQSLLNSRTRKNYLAWYQQKPGQSPKLLIYWASTRESGVPDRFTGSGSGTDFTLTITSVQAEDLAVYYCKQSYNLYTFGGGTKLEIKR",binds
2,"9-F1-D9-F10 (antibody, human IgG1, kappa, V domains shown) VH: EVQLVESGGGLVQPGGSLRVSCATSGFTFSDYYMSWVRQPPGKALEWLGFIRNKINGYTTEYSASVKGRFTISRDNSQSILYLQMNTLRAEDSATYYCTRDSSQRPFAYWGQGTLVTVSA VL: DIVMTQSPSSLSVSAGEKVTMTCKSSQSLLNSRSQKNFLAWYQQKPGQPPKLLIYGASTRESGVPDRFTGSGSGTDFTLTISNVQAEDLAVYYCQNDLTYPLTFGAGTKLELKR",binds
3,"16-B6-G3-E10 (antibody, human IgG1, kappa, V domains shown) VH: EVQLQQSGTELVRPGALVKLSCKTSGFNIKDCYMHWVKQRPEQGLEWIGWIDPENGNTIYDPKFQGKATITADTSSYTAYLQLSSLTSEDTAVYYCARSRARGYAMDYWGQGTSVTVTS VL: DIVMTQSPASLAVSLGQRATISCRASQSVSTSSYSYMHWYRQIPGQPPKLLIKYASNLESGVPARFSGSGSGTDFTLNIHPVEEEDTATYYCQHSWEIPRTFGGGTKLELKR",binds
4,"10-A3-C5-C8 (antibody, human IgG1, kappa, V domains shown) VH: EVQLVESGGGLVKPGGSLKLSCAVSGFTFSSYAMSWVRQTPEKRLEWVASITDGGITFYSDSLKGRFTISRDNSGNILYLQMSSLRSEDTAMYFCARGSITTDWYFDVWGAGTTVTVSS VL: DIVMTQAPLSLPVSLGDQASISCRSSQSLVHSNGNTYLHWYLQKPGQSPKLLIYKVSNRFSGVPDRFSGSGSGTDFTLKISRVEAEDLGVYFCSQSTHVPPYTFGGGTKLEIKR",binds

# Second part, the binder after the results:
row,binding,Binder
1,binds,"28-B1-E8-C11 (antibody, human IgG1, kappa, V domains shown) VH: EVKLVESGAVLVKPGASVKISCKASGYTLSDFNMDWVKQSQGKSLEWVGDINPNYDTITYNQKFRGKATLTVDRSSNTAYMELRSLTSEDSAVYYCARGELGRYFYVWGAGTTVTVSS VL: DIQLTQPPASLSASVGETVTITCRASENVYSYLAWYRQKQGRSPQLLVYNAKTLPEGVPSRFSGSGSGTQFSLKINSLQTEDLGDYYCQHHYGTPWTFGGGTKLEIKR"
2,binds,"16-D10-E1-E1 (antibody, human IgG1, kappa, V domains shown) VH: EVQLQQSGPELVRPGVSVKISCKGSGYTFTDYAMHWVKQSHAKSLEWIGVINTYSGNTYYSQKFKGKATMTVDKSSSTAYMELARLTSEDSAIYYCARGAGYFPYWYFDVWGAGTTVTVSS VL: DIQMIQSPSYLAASPGETITINCRASKSISKYLAWYQEKPGKTNKLLIYSGSTLQSGIPSRFSGSGSGTDFTLTISSLEPEDFAMYYCQQHYEYPYTFGGGTKLEIKR"
3,binds,"28-F8-C4-A8 (antibody, human IgG1, kappa, V domains shown) VH: EVQLQQSGAELVQPGASMKLSCKTSGYTFTTYDINWVRQRPEQGLEWIGWIFPGDGTTKYNEKFKGKATLTTDKSSSTAYMHLSRLTSEDSVVYFCARTPWFDYWGQGTTLTVSS VL: DIVLSQSPAIMSASPGEKVIMTCSASSSISYMYWYQQKPGTSPKRWIYDTSKLASGVPARFSVSGSGTSYSLTISSMEAEDAATYYCHQRSSYPTFGGGTKLELKR"
4,binds,"19-F1-E9-B11 (antibody, human IgG1, kappa, V domains shown) VH: EVQLQQSGPSLVKPSQTLSLTCSVTGGSITSFYWNWIRKFPGNKLEYMGYISSSGSTYYNPSLKSRISITRDTSKNQSYLQLNSVTAEDTATYYCARGGVHYGFGDYWGQGTSVTVSS VL: DIVMTQSAPSVPVTPGESVSISCRSSKSLLHSNGNTYLYWFLQRPGQSPQLLIYRMSNLASGVPDRFSGSGSGTAFTLRISRVEAEDVGVYYCMQHLEYPLTFGAGTKLELKR"
5,binds,"48-B4-D3-E3 (antibody, human IgG1, kappa, V domains shown) VH: EVQLQESGGDLVKPGGSLKLSCAASGFTFSSYGMSWVRQTPEKRLEWVASISGSGSYTYYPDSLKGRFTISRDNAKNNLYLQMSSLRSEDTALYYCARQDGYWYFDVWGAGTTVTVSS VL: DILMTQTPKFLLVSAGDRVTITCKASQSVSNDVAWYQQKPGQSPQLLIYYASHRYTGVPDRFTGSGYGTDFTFTISTVQAEDLAVYFCQQDNSSPLTFGAGTKLELKR"
6,binds,"41-G9-G4-D3 (antibody, human IgG1, kappa, V domains shown) VH: EVQVVESGPELVKPGASVKMSCKTSAYTFSDSVLSWVKQRTGQGLEWIGEIYPRGNVTHYNGKFKGKATLTADKSSNTAFMHFSSLTSEDSAVYFCARWNNFFFDYWGQGSTLTVSS VL: DIVMTQPPLSLPVTLGDLASISCRSSQSLVHSNGITYLHWYLQKPGQSPKLLIYKVSNRFSGVPDRFSGSGSGTDFTLKISRVEAEDLGVYFCSQSTHFPWTFGGGTKLELKR"
